The supplement of paper PMC6078165
Values are relative to the signal before dosing, not to a vehicle control; the signal also falls without drug.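 Fibroblast labels name human fibroblasts: mostly primary ones from tissues such as uterus (C12385, HUF), lung (H6013), bone (Hs27A), adrenal (HADF) and skin (WS1), plus mammary HMF and breast cancer-associated Hs343T. The cancer cells are basal-like or mesenchymal-like triple-negative breast cancer lines. The paper calls a changed response a hit when it shifts by more than 3x the replicate standard deviation. The tissue of the other fibroblasts is not given here.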

Test system: HCC1143
Experiment: relative JC-1 red fluorescence (viability) vs pre-drug, coculture with fibroblast (fraction); higher = more viable cancer cells
Conditions: 0.1 µM
Method: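 JC-1 labelled TNBC cells cocultured 1:1 (1,500 cells each) with CellTrace Violet stained primary or stromal fibroblasts in 384-well plates in FluoroBrite medium, treated with one of 42 anticancer drugs at 0.1, 1, 10 or 100 uM. JC-1 red fluorescence (mitochondrial integrity in cancer cells only) was read by plate reader every 8 h for 72 h. Values are normalised to each well's pre-drug value. The stock of one drug was tenfold lower, so its dose labels may be too high.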

C[C@]12CC[C@@H]3c4ccc(O)cc4C[C@@H](CCCCCCCCC[S+]([O-])CCCC(F)(F)C(F)(F)F)[C@H]3[C@@H]1CC[C@@H]2O (some centres not stated) [Fulvestrant]
relative JC-1 red fluorescence
Conditions | 8 h | 16 h | 24 h | 32 h | 40 h
coculture fibroblast: C12385 | 0.855 | 0.771 | 0.683 | 0.606 | 0.539
coculture fibroblast: H6013 | 0.801 | 0.727 | 0.706 | 0.707 | 0.629
coculture fibroblast: H6019 | 0.805 | 0.708 | 0.659 | 0.6 | 0.558
coculture fibroblast: H6076 | 0.804 | 0.765 | 0.705 | 0.69 | 0.625
coculture fibroblast: H6231 | 0.8075 | 0.807 | 0.723 | 0.629 | 0.632
coculture fibroblast: HADF | 0.735 | 0.6563 | 0.62333 | 0.627 | 0.541
coculture fibroblast: HCFa | 0.776 | 0.69 | 0.651 | 0.631 | 0.542
coculture fibroblast: HCPF | 0.802 | 0.775 | 0.697 | 0.643 | 0.592
coculture fibroblast: HHSteC | 0.836 | 0.756 | 0.722 | 0.7 | –
coculture fibroblast: HMF | 0.804 | 0.813 | 0.747 | 0.707 | –
coculture fibroblast: HPFa | 0.918 | 0.839 | 0.784 | 0.691 | –
coculture fibroblast: HUF | 0.906 | 0.815 | 0.752 | 0.66 | –
coculture fibroblast: Hs5 | 0.846 | 0.801 | 0.758 | 0.7544 | –
coculture fibroblast: Hs27A | 0.721 | 0.636 | 0.585 | 0.602 | –
coculture fibroblast: Hs343T | 0.793 | 0.8271 | 0.757 | 0.669 | –
coculture fibroblast: WS1 | 0.816 | 0.736 | 0.672 | 0.59 | –
